Results are given in words; binding and its absence hold for the method and conditions named. In cells and extracts the contact can be indirect. Some binding calls cover weakened binding; strength is not graded here.
Molecular target: GST-CBP (GST fused to the SRC1-binding domain of CBP) (mouse) (UniProt P45481)
Assay: GST pulldown of [35S]-labelled in vitro translated protein

Protein sequences, listed by entry. Tags and fused reporters are not part of them. Lines headed by an entry give the natural chain unless they say otherwise; changes in a name come on top. Chains listed by the source or under a name are the forms on record and can include a tag or linker. Residues count along the entry.
UniProt P45481, residues 2058-2163: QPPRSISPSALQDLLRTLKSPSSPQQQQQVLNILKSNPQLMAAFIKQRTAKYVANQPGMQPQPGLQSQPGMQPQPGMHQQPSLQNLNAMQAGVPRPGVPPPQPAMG
UniProt Q15788: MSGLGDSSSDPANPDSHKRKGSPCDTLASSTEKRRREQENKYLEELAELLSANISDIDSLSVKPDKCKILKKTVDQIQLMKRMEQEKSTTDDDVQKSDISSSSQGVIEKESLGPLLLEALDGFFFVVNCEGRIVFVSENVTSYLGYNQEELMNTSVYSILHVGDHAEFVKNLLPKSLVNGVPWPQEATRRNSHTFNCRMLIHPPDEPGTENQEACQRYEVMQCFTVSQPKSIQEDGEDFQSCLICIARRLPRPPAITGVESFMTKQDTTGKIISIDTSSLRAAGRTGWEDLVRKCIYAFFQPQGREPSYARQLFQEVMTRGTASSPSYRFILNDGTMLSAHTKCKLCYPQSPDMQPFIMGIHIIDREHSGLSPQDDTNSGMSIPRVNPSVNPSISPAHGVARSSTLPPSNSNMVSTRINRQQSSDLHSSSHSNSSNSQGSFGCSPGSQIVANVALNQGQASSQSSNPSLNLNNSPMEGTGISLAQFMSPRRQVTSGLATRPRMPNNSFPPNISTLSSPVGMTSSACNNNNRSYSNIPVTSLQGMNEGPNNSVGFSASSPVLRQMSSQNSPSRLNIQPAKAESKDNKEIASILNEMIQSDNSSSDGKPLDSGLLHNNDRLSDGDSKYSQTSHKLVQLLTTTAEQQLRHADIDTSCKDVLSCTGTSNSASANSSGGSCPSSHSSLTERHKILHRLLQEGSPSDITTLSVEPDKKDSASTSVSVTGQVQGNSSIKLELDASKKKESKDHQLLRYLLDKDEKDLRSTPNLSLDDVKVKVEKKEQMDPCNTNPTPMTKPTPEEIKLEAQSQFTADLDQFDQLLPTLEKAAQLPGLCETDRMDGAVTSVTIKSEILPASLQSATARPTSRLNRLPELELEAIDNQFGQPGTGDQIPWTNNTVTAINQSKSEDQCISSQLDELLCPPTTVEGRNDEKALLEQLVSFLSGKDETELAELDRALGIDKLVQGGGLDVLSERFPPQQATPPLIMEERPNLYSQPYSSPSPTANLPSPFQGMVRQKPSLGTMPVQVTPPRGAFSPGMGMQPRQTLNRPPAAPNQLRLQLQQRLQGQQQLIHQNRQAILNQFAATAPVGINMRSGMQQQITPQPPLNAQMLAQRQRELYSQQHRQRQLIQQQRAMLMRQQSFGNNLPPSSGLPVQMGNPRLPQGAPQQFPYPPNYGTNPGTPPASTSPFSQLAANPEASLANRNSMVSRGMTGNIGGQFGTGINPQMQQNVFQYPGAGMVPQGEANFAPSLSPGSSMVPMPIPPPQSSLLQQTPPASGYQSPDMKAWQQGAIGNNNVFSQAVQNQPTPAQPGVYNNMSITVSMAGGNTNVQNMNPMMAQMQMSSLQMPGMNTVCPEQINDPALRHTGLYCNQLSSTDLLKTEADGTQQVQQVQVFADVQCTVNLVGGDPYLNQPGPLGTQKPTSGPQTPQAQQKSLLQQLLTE
SRC1a-M1234 (Q15788, form named): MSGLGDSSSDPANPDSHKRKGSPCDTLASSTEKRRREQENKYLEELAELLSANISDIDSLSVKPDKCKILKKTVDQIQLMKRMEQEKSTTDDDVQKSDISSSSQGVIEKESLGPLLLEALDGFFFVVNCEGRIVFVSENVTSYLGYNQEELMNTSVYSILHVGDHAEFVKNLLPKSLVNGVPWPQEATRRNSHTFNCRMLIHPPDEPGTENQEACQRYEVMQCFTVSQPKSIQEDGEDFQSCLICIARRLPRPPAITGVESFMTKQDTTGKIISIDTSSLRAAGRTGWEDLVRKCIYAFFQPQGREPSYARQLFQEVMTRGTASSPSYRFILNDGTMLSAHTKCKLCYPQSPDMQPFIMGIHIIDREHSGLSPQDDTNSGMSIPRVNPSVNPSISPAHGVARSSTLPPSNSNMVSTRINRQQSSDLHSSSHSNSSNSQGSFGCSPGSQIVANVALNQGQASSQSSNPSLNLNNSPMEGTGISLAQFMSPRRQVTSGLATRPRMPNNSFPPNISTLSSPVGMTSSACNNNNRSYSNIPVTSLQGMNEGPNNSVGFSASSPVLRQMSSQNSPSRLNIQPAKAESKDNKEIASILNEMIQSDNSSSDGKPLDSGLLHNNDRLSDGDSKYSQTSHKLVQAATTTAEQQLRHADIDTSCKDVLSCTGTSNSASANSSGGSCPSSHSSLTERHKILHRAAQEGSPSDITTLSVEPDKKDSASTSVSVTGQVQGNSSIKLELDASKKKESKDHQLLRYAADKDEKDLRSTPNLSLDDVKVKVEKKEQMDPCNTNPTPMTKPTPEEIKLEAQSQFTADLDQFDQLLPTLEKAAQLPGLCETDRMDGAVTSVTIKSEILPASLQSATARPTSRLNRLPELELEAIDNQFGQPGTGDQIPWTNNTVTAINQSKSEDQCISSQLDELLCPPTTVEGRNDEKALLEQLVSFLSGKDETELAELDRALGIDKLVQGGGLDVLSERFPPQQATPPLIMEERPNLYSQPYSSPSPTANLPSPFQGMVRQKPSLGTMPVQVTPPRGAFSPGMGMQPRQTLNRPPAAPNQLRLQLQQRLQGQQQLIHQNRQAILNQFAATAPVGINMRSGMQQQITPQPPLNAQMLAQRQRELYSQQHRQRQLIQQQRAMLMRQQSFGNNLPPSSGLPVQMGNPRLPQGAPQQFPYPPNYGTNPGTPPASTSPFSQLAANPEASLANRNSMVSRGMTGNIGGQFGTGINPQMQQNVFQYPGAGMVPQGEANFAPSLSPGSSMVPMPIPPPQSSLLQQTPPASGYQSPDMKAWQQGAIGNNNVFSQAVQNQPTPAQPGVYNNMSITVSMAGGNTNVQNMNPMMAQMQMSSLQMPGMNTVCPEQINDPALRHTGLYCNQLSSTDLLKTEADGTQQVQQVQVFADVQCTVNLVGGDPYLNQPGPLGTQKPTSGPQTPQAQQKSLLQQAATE

Row | Substance | binding
1 | wild type SRC1a (human, in vitro translated) (from UniProt Q15788 1-1441) | binds
2 | SRC1a-M1234 (from UniProt Q15788 1-1441) | binds

Reference: patent EP0980526B1, “INHIBITORS OF NUCLEAR PROTEIN/NUCLEAR RECEPTOR INTERACTION” (IMPERIAL CANCER RESEARCH TECHNOLOGY LIMITED, priority 1997, dated 1998)
